# Laboratory results as given in the supplement of paper PMC8728848.
# The list shows a part of the results.
# B1: Tp0751, 83732 (protein)
# chain: MSYYHHHHHHLESTSLYKKAGFQHGHVPPRRIPPHDTFGALPTAALPSNARDTAAHPSDTADNTSGSSTTTDPRSHGNAPPAPVGGAAQTHTQPPVQTAMRIALWNRATHGEQGALQHLLAGLWIQTEISPNSGDIHPLLFFDREHAEITFSRASVQEIFLVDSAHTHRKTVSFLTRNTAISSIRRRLEVTFESHEVIHVRAVEDVARLKIGSTSMWDGQYTRYHAGPASAPSP
# How the values were obtained:
# Assay in all cases: glycan array binding signal (z-score within array); higher = stronger binding
# Conditions in all cases: glycan notation: IUPAC condensed, linker removed
# [1] = biological target: Neu5Ac(a2-3)Gal(b1-4)Glc
# Procedure, shortened: (§1)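 Arrays were curated from the Consortium for Functional Glycomics database, 3228 in total, and kept only where the protein sequence was available. Binding is expressed as a within-array Z-score. This score was averaged across arrays of the same protein sequence at different concentrations or buffers and across linkers, and negative values can be read as non-binding.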
# [2] = biological target: Neu5Ac(a2-3)Gal(b1-4)GlcNAc
# Procedure, shortened: as §1
# [3] = biological target: Neu5Ac(a2-3)Gal(b1-4)GlcNAc(b1-2)Man
# Procedure, shortened: as §1
# [4] = biological target: Neu5Ac(a2-3)Gal(b1-4)GlcNAc(b1-2)Man(a1-3)[GlcNAc(b1-4)][Neu5Ac(a2-3)Gal(b1-4)GlcNAc(b1-2)Man(a1-6)]Man(b1-4)GlcNAc(b1-4)GlcNAc
# Procedure, shortened: as §1
# [5] = biological target: Neu5Ac(a2-3)Gal(b1-4)GlcNAc(b1-2)Man(a1-3)[Neu5Ac(a2-3)Gal(b1-4)GlcNAc(b1-2)Man(a1-6)]Man(b1-4)GlcNAc(b1-4)GlcNAc
# Procedure, shortened: as §1
# [6] = biological target: Neu5Ac(a2-3)Gal(b1-4)GlcNAc(b1-2)Man(a1-3)[Neu5Ac(a2-3)Gal(b1-4)GlcNAc(b1-2)Man(a1-6)]Man(b1-4)GlcNAc(b1-4)[Fuc(a1-6)]GlcNAc
# Procedure, shortened: as §1
# [7] = biological target: Neu5Ac(a2-3)Gal(b1-4)GlcNAc(b1-2)Man(a1-3)[Neu5Ac(a2-6)Gal(b1-4)GlcNAc(b1-2)Man(a1-6)]Man(b1-4)GlcNAc(b1-4)GlcNAc
# Procedure, shortened: as §1
# [8] = biological target: Neu5Ac(a2-3)Gal(b1-4)GlcNAc(b1-2)[Neu5Ac(a2-3)Gal(b1-4)GlcNAc(b1-4)]Man(a1-3)[GlcNAc(b1-4)][Neu5Ac(a2-3)Gal(b1-4)GlcNAc(b1-2)[Neu5Ac(a2-3)Gal(b1-4)GlcNAc(b1-6)]Man(a1-6)]Man(b1-4)GlcNAc(b1-4)GlcNAc
# Procedure, shortened: as §1
# [9] = biological target: Neu5Ac(a2-3)Gal(b1-4)GlcNAc(b1-2)[Neu5Ac(a2-3)Gal(b1-4)GlcNAc(b1-4)]Man(a1-3)[GlcNAc(b1-4)][Neu5Ac(a2-3)Gal(b1-4)GlcNAc(b1-4)Man(a1-6)]Man(b1-4)GlcNAc(b1-4)GlcNAc
# Procedure, shortened: as §1
# [10] = biological target: Neu5Ac(a2-3)Gal(b1-4)GlcNAc(b1-2)[Neu5Ac(a2-3)Gal(b1-4)GlcNAc(b1-6)]Man(a1-6)[Neu5Ac(a2-3)Gal(b1-4)GlcNAc(b1-2)Man(a1-3)]Man(b1-4)GlcNAc(b1-4)GlcNAc
# Procedure, shortened: as §1
# [11] = biological target: Neu5Ac(a2-3)Gal(b1-4)GlcNAc(b1-2)[Neu5Ac(a2-3)Gal(b1-4)GlcNAc(b1-6)]Man(a1-6)[Neu5Ac(a2-3)Gal(b1-4)GlcNAc(b1-2)Man(a1-3)][GlcNAc(b1-4)]Man(b1-4)GlcNAc(b1-4)GlcNAc
# Procedure, shortened: as §1
# [12] = biological target: Neu5Ac(a2-3)Gal(b1-4)GlcNAc(b1-3)Gal
# Procedure, shortened: as §1
# [13] = biological target: Neu5Ac(a2-3)Gal(b1-4)GlcNAc(b1-3)Gal(b1-3)GlcNAc
# Procedure, shortened: as §1
# [14] = biological target: Neu5Ac(a2-3)Gal(b1-4)GlcNAc(b1-3)Gal(b1-4)GlcNAc
# Procedure, shortened: as §1
# [15] = biological target: Neu5Ac(a2-3)Gal(b1-4)GlcNAc(b1-3)Gal(b1-4)GlcNAc(b1-2)Man(a1-3)[Neu5Ac(a2-3)Gal(b1-4)GlcNAc(b1-3)Gal(b1-4)GlcNAc(b1-2)Man(a1-6)]Man(b1-4)GlcNAc(b1-4)GlcNAc
# Procedure, shortened: as §1
# [16] = biological target: Neu5Ac(a2-3)Gal(b1-4)GlcNAc(b1-3)Gal(b1-4)GlcNAc(b1-3)Gal(b1-4)GlcNAc
# Procedure, shortened: as §1
# [17] = biological target: Neu5Ac(a2-3)Gal(b1-4)GlcNAc(b1-3)Gal(b1-4)GlcNAc(b1-3)Gal(b1-4)GlcNAc(b1-2)Man(a1-3)[Neu5Ac(a2-3)Gal(b1-4)GlcNAc(b1-3)Gal(b1-4)GlcNAc(b1-3)Gal(b1-4)GlcNAc(b1-2)Man(a1-6)]GalNAc
# Procedure, shortened: as §1
# [18] = biological target: Neu5Ac(a2-3)Gal(b1-4)GlcNAc(b1-3)Gal(b1-4)GlcNAc(b1-3)GalNAc
# Procedure, shortened: as §1
# [19] = biological target: Neu5Ac(a2-3)Gal(b1-4)GlcNAc(b1-3)Gal(b1-4)GlcNAc(b1-3)[Neu5Ac(a2-3)Gal(b1-4)GlcNAc(b1-3)Gal(b1-4)GlcNAc(b1-6)]GalNAc
# Procedure, shortened: as §1
# [20] = biological target: Neu5Ac(a2-3)Gal(b1-4)GlcNAc(b1-3)Gal(b1-4)GlcNAc(b1-6)[Gal(b1-3)]GalNAc
# Procedure, shortened: as §1
# [21] = biological target: Neu5Ac(a2-3)Gal(b1-4)GlcNAc(b1-3)Gal(b1-4)[Fuc(a1-3)]GlcNAc
# Procedure, shortened: as §1
# [22] = biological target: Neu5Ac(a2-3)Gal(b1-4)GlcNAc(b1-3)GalNAc
# Procedure, shortened: as §1
# [23] = biological target: Neu5Ac(a2-3)Gal(b1-4)GlcNAc(b1-3)[Neu5Ac(a2-3)Gal(b1-4)GlcNAc(b1-6)]GalNAc
# Procedure, shortened: as §1
# [24] = biological target: Neu5Ac(a2-3)Gal(b1-4)GlcNAc(b1-6)GalNAc
# Procedure, shortened: as §1
# [25] = biological target: Neu5Ac(a2-3)Gal(b1-4)GlcNAc(b1-6)[Gal(b1-3)]GalNAc
# Procedure, shortened: as §1
# [26] = biological target: Neu5Ac(a2-3)Gal(b1-4)GlcNAc(b1-6)[Neu5Ac(a2-3)Gal(b1-3)]GalNAc
# Procedure, shortened: as §1
# [27] = biological target: Neu5Ac(a2-3)Gal(b1-4)GlcNAc6S
# Procedure, shortened: as §1
# [28] = biological target: Neu5Ac(a2-3)Gal(b1-4)[Fuc(a1-3)]GlcNAc
# Procedure, shortened: as §1
# [29] = biological target: Neu5Ac(a2-3)Gal(b1-4)[Fuc(a1-3)]GlcNAc(b1-2)Man
# Procedure, shortened: as §1
# [30] = biological target: Neu5Ac(a2-3)Gal(b1-4)[Fuc(a1-3)]GlcNAc(b1-3)Gal
# Procedure, shortened: as §1
# [31] = biological target: Neu5Ac(a2-3)Gal(b1-4)[Fuc(a1-3)]GlcNAc(b1-3)Gal(b1-4)GlcNAc
# Procedure, shortened: as §1
# [32] = biological target: Neu5Ac(a2-3)Gal(b1-4)[Fuc(a1-3)]GlcNAc(b1-3)Gal(b1-4)[Fuc(a1-3)]GlcNAc(b1-3)Gal(b1-4)[Fuc(a1-3)]GlcNAc
# Procedure, shortened: as §1
# [33] = biological target: Neu5Ac(a2-3)Gal(b1-4)[Fuc(a1-3)]GlcNAc(b1-3)GalNAc
# Procedure, shortened: as §1
# [34] = biological target: Neu5Ac(a2-3)Gal(b1-4)[Fuc(a1-3)]GlcNAc(b1-6)[Gal(b1-3)]GalNAc
# Procedure, shortened: as §1
# [35] = biological target: Neu5Ac(a2-3)Gal(b1-4)[Fuc(a1-3)]GlcNAc(b1-6)[Neu5Ac(a2-3)Gal(b1-3)]GalNAc
# Procedure, shortened: as §1
# [36] = biological target: Neu5Ac(a2-3)Gal(b1-4)[Fuc(a1-3)]GlcNAc6S
# Procedure, shortened: as §1
# [37] = biological target: Neu5Ac(a2-3)Gal6S(b1-4)GlcNAc
# Procedure, shortened: as §1
# [38] = biological target: Neu5Ac(a2-3)Gal6S(b1-4)[Fuc(a1-3)]GlcNAc
# Procedure, shortened: as §1
binder,measurement,setting,value
B1,glycan array binding signal (z-score),[1],-0.147
same,glycan array binding signal (z-score),[2],-0.059
same,glycan array binding signal (z-score),[3],6.75
same,glycan array binding signal (z-score),[4],-0.35
same,glycan array binding signal (z-score),[5],-0.437
same,glycan array binding signal (z-score),[6],-0.523
same,glycan array binding signal (z-score),[7],-0.421
same,glycan array binding signal (z-score),[8],-0.427
same,glycan array binding signal (z-score),[9],-0.386
same,glycan array binding signal (z-score),[10],0.009
same,glycan array binding signal (z-score),[11],-0.21
same,glycan array binding signal (z-score),[12],-0.332
same,glycan array binding signal (z-score),[13],-0.071
same,glycan array binding signal (z-score),[14],0.172
same,glycan array binding signal (z-score),[15],0.542
same,glycan array binding signal (z-score),[16],0.133
same,glycan array binding signal (z-score),[17],0.338
same,glycan array binding signal (z-score),[18],-0.746
same,glycan array binding signal (z-score),[19],-0.346
same,glycan array binding signal (z-score),[20],0.008
same,glycan array binding signal (z-score),[21],-0.479
same,glycan array binding signal (z-score),[22],-0.179
same,glycan array binding signal (z-score),[23],-0.246
same,glycan array binding signal (z-score),[24],-0.33
same,glycan array binding signal (z-score),[25],-0.36
same,glycan array binding signal (z-score),[26],-0.244
same,glycan array binding signal (z-score),[27],-0.13
same,glycan array binding signal (z-score),[28],-0.213
same,glycan array binding signal (z-score),[29],-0.032
same,glycan array binding signal (z-score),[30],-0.282
same,glycan array binding signal (z-score),[31],0.024
same,glycan array binding signal (z-score),[32],-0.664
same,glycan array binding signal (z-score),[33],0.475
same,glycan array binding signal (z-score),[34],0.078
same,glycan array binding signal (z-score),[35],-0.636
same,glycan array binding signal (z-score),[36],-0.169
same,glycan array binding signal (z-score),[37],-0.236
same,glycan array binding signal (z-score),[38],-0.248
